The results in this text go back to the supplement of paper PMC12425257.

The structures appear in SMILES notation. The list shows a part of the results.

This assay concerns Madurella mycetomatis MM55. Here is the method:
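Kinase Chemogenomic Set (KCGS 2.0) screened against Madurella mycetomatis MM55 hyphal suspension in RPMI + L-glutamine + MOPS in 384-well plates, 4 days at 37°C, 5% CO2. CellTiter-Glo 3D luminescence gives metabolic activity as % of the DMSO growth control after subtracting the medium-only negative control. Screened at 1, 2 and 10 µM in two biological replicates (A/B); hits (>=80% reduction in both replicates) were also tested at 4 and 8 µM, and their IC50 was read visually from the dose curve, in duplicate.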
Compound `Cc1cccc(-c2nc(Nc3ccncc3)c3ccccc3n2)n1` came in with an IC50 growth inhibition of 7.9 µM. The compound `CCc1nc(-c2cccc(C)c2)c(-c2ccncc2)s1` came in with an IC50 growth inhibition of 4.79 µM. The value for `Fc1ccc(-c2nn3ccccc3c2-c2ccncc2)cc1` was 3.84 µM. On to `Nc1nccc(-c2c(-c3ccc(F)cc3)ncn2C2CCN(Cc3ccccc3)CC2)n1`, for which the IC50 growth inhibition came to 5.79 µM.

Turning to `Cc1cccc(-c2nc3cnccn3c2-c2ccnc(NC3CCCCC3)n2)c1`, the IC50 growth inhibition stood at 7.89 µM. As to `CNC(=O)c1nn(C)c2c1C(C)(C)Cc1cnc(Nc3ccc(N4CCOCC4)cc3OC)nc1-2`, the IC50 growth inhibition came to 7.81 µM.
